No constants are given. Whether binding was seen depends on the method and setting. Binding seen in cells or lysates may run through a third protein. Binding can be weak; no strength is given. Tags and fused reporters may be left off the sequences shown.
Molecular target: T1, GST-tagged ZC3H15 full length (human) (UniProt Q8WU90)
T1 sequence: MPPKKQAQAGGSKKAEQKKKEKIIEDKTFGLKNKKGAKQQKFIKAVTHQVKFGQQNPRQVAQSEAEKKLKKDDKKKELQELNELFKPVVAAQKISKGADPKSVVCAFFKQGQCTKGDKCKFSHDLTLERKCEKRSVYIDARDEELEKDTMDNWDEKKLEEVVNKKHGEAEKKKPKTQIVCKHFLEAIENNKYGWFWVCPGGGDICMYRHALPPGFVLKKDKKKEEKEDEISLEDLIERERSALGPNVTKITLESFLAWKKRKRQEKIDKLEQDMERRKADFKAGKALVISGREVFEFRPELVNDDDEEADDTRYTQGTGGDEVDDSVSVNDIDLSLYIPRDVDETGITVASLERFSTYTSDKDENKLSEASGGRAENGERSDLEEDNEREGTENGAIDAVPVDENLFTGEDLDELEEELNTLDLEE
Test: pull-down; GST pull-down from HEK293T cells co-expressing a FLAG-tagged and a GST-tagged protein; NETN lysis buffer, beads 4 °C 2 to 4 h, three washes; western blot

binding: binds
Substance: FLAG-tagged TERT TEN domain (truncation mutant) (human) (domain or fragment)
